Measured values as given in paper PMC9452830.
Results are given in words; binding and its absence hold for the method and conditions named. For some of these results: Binding seen in cells or lysates may run through a third protein. Some entries that bind do so weakly or less than the wild type. Each block holds one substance with its values, some of them ahead of it.

By UniProt entry, the sequences of proteins in these tests, tags left out. Where a name states a change or a piece, a line headed by the entry shows the natural chain unless it says otherwise. Chains listed by the source or under a name are the forms on record and can include a tag or linker. Residues count along the entry.
UniProt Q13772: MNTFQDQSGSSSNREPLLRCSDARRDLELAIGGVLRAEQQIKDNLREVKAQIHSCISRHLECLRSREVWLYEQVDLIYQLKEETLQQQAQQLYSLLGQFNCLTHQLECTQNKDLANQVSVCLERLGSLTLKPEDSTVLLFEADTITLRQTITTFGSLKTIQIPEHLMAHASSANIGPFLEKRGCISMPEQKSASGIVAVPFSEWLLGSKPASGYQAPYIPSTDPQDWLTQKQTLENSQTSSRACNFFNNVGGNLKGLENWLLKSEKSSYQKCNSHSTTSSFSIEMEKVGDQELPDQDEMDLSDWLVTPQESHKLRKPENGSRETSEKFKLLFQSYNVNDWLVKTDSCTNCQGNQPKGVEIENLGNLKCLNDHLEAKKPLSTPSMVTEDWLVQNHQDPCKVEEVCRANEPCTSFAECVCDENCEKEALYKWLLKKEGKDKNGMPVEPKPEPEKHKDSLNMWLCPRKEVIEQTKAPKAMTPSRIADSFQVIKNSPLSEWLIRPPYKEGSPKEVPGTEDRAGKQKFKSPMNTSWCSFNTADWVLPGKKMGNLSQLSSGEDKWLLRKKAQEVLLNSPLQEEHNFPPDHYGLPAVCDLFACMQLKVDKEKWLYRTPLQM
N-terminal domain of NCOA4 (NCOA4N) fused with mGFP, wild type: residues 1-182 of Q13772
mGFP-NCOA4N with L63R mutation (Q13772-1, form named): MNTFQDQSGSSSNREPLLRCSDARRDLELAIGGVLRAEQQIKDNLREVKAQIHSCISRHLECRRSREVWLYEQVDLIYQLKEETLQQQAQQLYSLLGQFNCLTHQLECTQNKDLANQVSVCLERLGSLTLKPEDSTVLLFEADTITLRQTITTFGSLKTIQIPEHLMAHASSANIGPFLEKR
mGFP-NCOA4N with I56E mutation (Q13772-1, form named): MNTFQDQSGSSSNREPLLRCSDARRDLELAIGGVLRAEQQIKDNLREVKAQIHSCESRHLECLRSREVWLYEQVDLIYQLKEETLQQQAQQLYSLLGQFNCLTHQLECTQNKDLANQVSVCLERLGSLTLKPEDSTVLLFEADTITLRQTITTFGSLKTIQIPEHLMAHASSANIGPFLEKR

How the values were obtained:
[1] = molecular target: N-terminal domain (residues 1–182) of NCOA4, wild type, two-hybrid fusion (human) (UniProt Q13772); experiment: two-hybrid; yeast AH109 cells; NCOA4 N-terminal domain (1–182) fused with AD (pGADT7) or BD (pGBKT7); growth on SD (-Leu, -Trp, -Ade) plates
[2] = molecular target: FLAG-NCOA4 L63R mutant, full-length (human) (UniProt Q13772); experiment: co-IP; anti-DYKDDDDK/FLAG magnetic beads on lysates of NCOA4 KO HeLa cells expressing FLAG-NCOA4 and mGFP-NCOA4N; 0.1% DDM in 25 mM HEPES-KOH pH 7.2, 150 mM NaCl, 2 mM EDTA; 3 h at 4°C; immunoblots for FLAG, GFP, FTH1, FTL
[3] = molecular target: 3×FLAG-tagged NCOA4 (FLAG-NCOA4), full-length, wild type (human) (UniProt Q13772); experiment: as above
[4] = molecular target: FLAG-NCOA4 I56E mutant, full-length (human) (UniProt Q13772); experiment: as above

binding [1]: binds
Substance: N-terminal domain (residues 1–182) of NCOA4, wild type, two-hybrid fusion (from UniProt Q13772-1 1-182) (domain or fragment)

binding [2]: no binding
Substance: mGFP-NCOA4N with L63R mutation (from UniProt Q13772-1 1-182) (domain or fragment)

binding [3]: binds
Substance: N-terminal domain of NCOA4 (NCOA4N) fused with mGFP, wild type (from UniProt Q13772-1 1-182) (domain or fragment)

binding [4]: no binding
Substance: mGFP-NCOA4N with I56E mutation (from UniProt Q13772-1 1-182) (domain or fragment)
